Numbering of substitutions follows the chain as printed. Some entries share one result that the patent states for a list of compounds.
B1: MLC089: fusion polypeptide SEQ ID NO: 379 conjugated with Moiety B at 39C of Linker (conjugate)
chain: HGEGTFTSDVSSYLEEQAAKEFIAWLVRGGGGAQPGAQPGAQPGAQPGAQPGAQPGAQPGAQPGQEPGQCPGQEPGAQPGQEPGAQPGQEPGAQPGQEPGAQPGQEPGAQPARQGDHCPLGPGRCCRLHTVRASLEDLGWADWVLSPREVQVTMCIGACPSQFRAANLHAQIKTSLHRLKPDTVPAPCCVPASYNPMVLIQKTDTGVSLQTYDDLLAKDCHCI
modifications: Moiety B conjugated at linker Cys39
B2: MLC093: fusion polypeptide SEQ ID NO: 381 conjugated with Moiety B at 33C of Linker (conjugate)
chain: B1 chain with G64C, Q69A, C70Q
modifications: Moiety B conjugated at linker Cys33
B3: MLC090: fusion polypeptide SEQ ID NO: 379 conjugated with Moiety C at 39C of Linker (conjugate)
chain: B1 chain
modifications: Moiety C conjugated at linker Cys39

experiment: PK study in non-human primates, single sc dose 5 nmol/kg, plasma ELISA; details: monkey, single sc 5 nmol/kg

Half life, above 40 hours:
B1, B2, B3
